This is an account of results in PubChem BioAssay AID2685 (National Center for Advancing Translational Sciences (NCATS), 2010).

The assay is described as follows: qHTS Assay for Lipid Storage Modulators in Drosophila S3 Cells.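 For cell number change: cells counted by Cell Tracker Red CMTPX staining in the red channel.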 Conditions: BODIPY lipid droplet fluorescence, 18-24 h; for cell number change: measured here: cell count max response, cells fed with added oleic acid. The gist of the method:
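Drosophila S3 cells got compounds at several concentrations plus oleic acid (400 uM solution). Laser-scanning cytometry with 488 nm excitation read lipid droplets at 500-530 nm and cells at 575-640 nm. Percent activity was relative to 20 uM Triacsin C.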

[1] abbreviates: measured here: lipid fluorescence (Fed channel) AC50, cells fed with added oleic acid.
Setting [2] is: measured here: cell number channel AC50, cells fed with added oleic acid.

What is called AC50 is the concentration at which the activity in the assay is half-maximal. A lower AC50 goes with activity at low concentration.

The other results are listed elsewhere or left out. Shown are side measurements of this screen, not its main read-out; they come without a call. Compounds called inactive in the main read-out are mostly missing here. The note in brackets gives the kind of curve behind each potency; many fits are weak.

In the case of `CN(C)CCCN(C(=O)COc1ccc(Cl)cc1)c1nc2cc3c(cc2s1)OCO3`, the cell number change is -22.6%.

On to `O=C(CSc1nnc(-c2cnccn2)n1Cc1ccco1)c1ccc(Cl)c(Cl)c1`, for which, under setting [1], the concentration at half-maximal activity (AC50) is 0.259 µM [rising, full curve, poor fit].

As to `Cc1sc2ccccc2[n+]1CCC(C)S(=O)(=O)[O-]` (stereo not drawn), the cell number change worked out at 15.1%. In addition, the concentration at half-maximal activity (AC50) under setting [1] is 16.4 µM [rising, single point].

As for `COc1cc(C2C(C(=O)c3cccs3)=C(O)C(=O)N2CCN2CCOCC2)cc(OC)c1OC` (stereo not drawn), the cell number change is -2.35%.

`CC(=O)Oc1ccc2c(=O)c(Oc3ccccc3)coc2c1OC(C)=O`: the AC50 was 0.651 µM [rising, single point] under setting [2] and 14.6 µM [falling, partial curve, poor fit] under setting [1].

On to `CC(Oc1ccc(Br)cc1)C(=O)Nc1nc(-c2ccccn2)cs1` (stereo not drawn), for which the cell number change was -37.9%. Also, the half-maximal activity concentration (AC50) under setting [2] was 16.4 µM [falling, partial curve]. For the same molecule, the AC50 under setting [1] is 1.03 µM [falling, partial curve].

As for `Cc1ccc(S(=O)(=O)NCc2ccc(C(=O)NCCCN3CCC(Cc4ccccc4)CC3)cc2)cc1`, the cell number change was -29.2%. For the same molecule, the concentration at half-maximal activity (AC50) under setting [1] was 18.4 µM [falling, single point].

With `COc1ccc2c(c1)c(=O)oc1cc(OCC(=O)NC3CC3)ccc12`, the cell number change is -3.57%. In addition, the concentration at half-maximal activity (AC50) under setting [1] is 8.2 µM [rising, partial curve, poor fit].

For `COCCn1c(SCC(=O)Nc2ccc(C)cc2C)nc2c(oc3ccccc32)c1=O`, the cell number change came to 18.4%. Moreover, the AC50 under setting [2] was 0.13 µM [rising, full curve, poor fit]. For the same molecule, under setting [1], the AC50 was 0.13 µM [falling, full curve, poor fit].

Take `O=C(COC(=O)CSc1ccc(F)cc1)NCCCc1ccccc1`: the cell number change is -94.5%. Further, the concentration at half-maximal activity (AC50) under setting [2] was 29.1 µM [falling, single point].

Take `CC(C(=O)NCc1ccco1)n1nc(-c2ccccc2)c2cc(Cl)ccc21` (stereo not drawn): the cell number change is -27.1%. For the same molecule, under setting [1], the concentration at half-maximal activity (AC50) was 29.1 µM [falling, partial curve, poor fit].

Turning to `Oc1cccc(/C=N/N(Cc2ccccc2)c2ccccc2)c1`, the cell number change was -73.6%.

Turning to `CC(C)SC1=NC(C)(C)C=C(/C=C/c2ccc(Cl)cc2Cl)N1`, under setting [1], the AC50 is 2.91 µM [rising, partial curve].

Consider `Cc1ccc(OCCNC(=O)CN2C(=O)NC3(CCCC3)C2=O)cc1`, for which the cell number change is -41%. For the same molecule, under setting [2], the concentration at half-maximal activity (AC50) was 14.6 µM [falling, partial curve, poor fit]. Moreover, the AC50 under setting [1] was 8.2 µM [falling, partial curve, poor fit].

Regarding `O=C(Nc1ccccc1)c1cc2ccc3ccccc3c2s1`, the cell number change stood at 37.6%. Moreover, under setting [1], the AC50 was 16.4 µM [rising, single point].

As to `CC1=C(C(N)=O)C(c2cccs2)n2nc(-c3cccc(C)c3)nc2N1` (stereo not drawn), the cell number change is -14.2%. Moreover, the AC50 under setting [1] is 0.00461 µM [falling, full curve, poor fit].

Consider `COC(=O)CCC(=O)N1CCc2cc(S(=O)(=O)N3CCc4ccccc43)ccc21`, for which the cell number change turned out to be 1.49%.

As for `COc1cc2c(cc1OC)CN(C(=O)c1ccc3[nH]c(C)c(C)c3c1)CC2`, the cell number change is -12%.

With `CSCCC(NC(=O)c1ccccc1Br)C(=O)N1CCCCCCC1` (stereo not drawn), the cell number change is -3.63%.

`O=C(C1CCN(S(=O)(=O)c2cc(Cl)ccc2Cl)CC1)N1CCOCC1`: the cell number change was 15.3%. The AC50 under setting [1] is 29.1 µM [rising, partial curve, poor fit].

Regarding `Cc1ccc(OCC(=O)N2CCOCC2)cc1C`, the cell number change is -21.5%. For the same molecule, the concentration at half-maximal activity (AC50) under setting [1] was 0.326 µM [falling, full curve].

Consider `CC/C(=N/NC(=O)c1ccc(Br)o1)c1ccc(Cl)cc1`, for which the cell number change is -10.2%. Moreover, the half-maximal activity concentration (AC50) under setting [1] was 2.06 µM [rising, partial curve].

On to `O=C(COC(=O)[C@@H]1CCCN1C(=O)c1cccs1)NCCc1ccccc1`, for which the cell number change is -16.2%.

`O=C(Nc1ccccc1N1CCCCC1)c1cccc(F)c1`: the cell number change was -18.3%. Moreover, the AC50 under setting [1] is 5.17 µM [rising, full curve].

For the molecule `COc1cccc(S(=O)(=O)Nc2ccc3sc(C)nc3c2)c1`, the cell number change was -13.9%. Besides, the concentration at half-maximal activity (AC50) under setting [1] was 6.51 µM [rising, single point].

As to `COc1ccc(C2SCC(C(=O)NCc3ccc(F)cc3)N2C(C)=O)cc1` (stereo not drawn), the cell number change turned out to be 34.8%. Moreover, the AC50 under setting [2] is 32.6 µM [rising, single point].

Consider `O=C(NCc1ccc(N2CCCC2=O)cc1)c1cn(CCc2ccccc2)nn1`, for which the cell number change worked out at 27.2%.

As for `CSc1sc(C(=O)N(C)C)cc1S(=O)(=O)C(C)C`, the cell number change was 16.6%. The AC50 under setting [1] is 6.51 µM [rising, partial curve, poor fit].

With `CC(=O)C1=C(C)NC(SCC(=O)c2ccccc2)=C(C#N)C1c1ccco1` (stereo not drawn), the cell number change was -21.8%. In addition, the AC50 under setting [1] was 0.731 µM [rising, single point].

Consider `O=C(CN1CCN(S(=O)(=O)c2ccc(Cl)s2)CC1)NCc1ccc(Cl)cc1`, for which the cell number change is 1.85%.

On to `CN(C)c1ccc(C(=O)N/N=C/c2cc(Br)cc(Br)c2O)cc1`, for which the cell number change was -30.6%. Besides, the AC50 under setting [2] was 1.3 µM [falling, full curve, poor fit].

As for `CCOc1cc(N2CCOCC2)c(OCC)cc1NC(=O)c1ccc(F)c(S(=O)(=O)N2CCOCC2)c1`, the cell number change amounted to 20.5%.

Take `COc1cc(CNCc2cccs2)ccc1OCC(N)=O`: the cell number change was 1.72%. Also, the AC50 under setting [1] was 2.06 µM [rising, partial curve, poor fit].

With `C=CCn1c(N)c(C(=O)Nc2ccc(C)cc2)sc1=S`, the cell number change is -1.07%. Under setting [1], the half-maximal activity concentration (AC50) was 0.259 µM [rising, partial curve, poor fit].

Regarding `CCC(=O)N1CCN(c2ccc(NC(=O)c3ccc(-c4ccccc4)cc3)cc2)CC1`, the cell number change was -47.2%. Further, the AC50 under setting [2] was 25.9 µM [falling, single point]. Further, under setting [1], the AC50 is 25.9 µM [falling, single point].

For the molecule `Nc1ccc2oc(-c3cccs3)nc2c1`, the cell number change was -13.3%. Besides, under setting [1], the AC50 was 0.291 µM [rising, full curve].

Take `COc1cccc(-c2cc(C(=O)N3CCCCCC3)no2)c1`: the cell number change worked out at 31%. In addition, the AC50 under setting [2] is 18.4 µM [rising, partial curve].

As for `COCCn1c(Cc2ccccc2)nnc1SCC(=O)N(C)C`, the cell number change amounted to 2.02%. Besides, the half-maximal activity concentration (AC50) under setting [1] was 18.4 µM [falling, single point].

Take `CNc1ncc(C(=O)c2ccc(-c3ccccc3)cc2)s1`: the cell number change is -1.93%.

Take `CC(=O)Nc1ccc(S(=O)(=O)N2CCN(S(=O)(=O)N3CCCCC3)CC2)cc1`: the concentration at half-maximal activity (AC50) by setting is: under setting [2], 2.91 µM [rising, single point]; under setting [1], 6.51 µM [rising, partial curve, poor fit].

Turning to `Cc1ccc(N2C(=O)CC(N3CCN(c4ccccn4)CC3)C2=O)cc1` (stereo not drawn), the cell number change was 12.1%. Also, the AC50 under setting [1] was 1.46 µM [rising, full curve, poor fit].
